From patent US20190270982
For at least one entry, the source does not settle the construct or the ends of the probe.

test system: lactoferrin; test: FP; settings: 25 ug/mL lactoferrin standard, 37 C 15 min; no value given; purified native protein; label: FITC; single-stranded DNA

Sequence	binding result
AGGCAGGACACCGTAACCGGTGCATCTATGGCTACTAGCTTTTCCTGCCT [N2]	binds

same assay, conditions: linear standard curve, diluted milk, 37 C 15 min; purified native protein; label: FITC; single-stranded DNA

Sequence	binding result
GGCAGGACACCGTAACCAGTATAGGTGCATTTTTGGCGCAAGCTCTTCCTGCCCTG [N31]	binds
GCAGGACACCGTAACTCGGGCAAAGCTCTGAATAATGTTCAACCAATATTCTGTCCTGC [N6]	binds
GGCAGGACACCGTAACCCCTAGTTCCTGGTGCATTTATGGCAAAGCTTTTCCTGCC [N16]	binds
GCAGGACACCGTAACACTGCTTTATCCCCGTCGGCTTGGCTCTTCGACAGTGTGGCTGC [N14]	binds

test system: lactoferrin; test: SELEX; settings: selected on microarray chip, PBS wash, room temperature; purified native protein; single-stranded DNA

Sequence	selection result
TGACAGGCAGGACACCGTAACACGGGGCAATTTTGGTGAAGCTCTTCCTGCCCAGCCTACTCTGCTACCTCCCTCCTCTTCA [N54]	selected
GCAGGACACCGTAACGGGTGCACACTCTTATTTTTACACGAGCCAAAAATATGTCCTGC [N22]	selected
GGCAGGACACCGTAACCCCTAGTTCCTGGTGCATTTATGGCAAAGCTCTTCCTGCC [N35]	selected
GCAGGACACCGTAACAATACTCCTGTTACCGTGCATCTATGGCCATTGGCTTTTCCTGC [N7]	selected
AGGCAGGACACCGTAACCTACAACGGTGCCATCTATGGGCTTTGCTTTTCCTGCCT [N36]	selected
AGGCAGGACACCGTAACTGAACGGTCTTGGCTACTGCACATTTTTCCTGCCT [N25]	selected
TGACAGGCAGGACACCGTAACGGGCAATCTTGCTCTTATTTTCACACCTGATAAATATGTCCTGCTACCTCCCTCCTCTTCA [N47]	selected
TGACAGGCAGGACACCGTAACGTAACTACGGACGGCATCTATGGCTATGCTCTTGTCCCTGCTGCTACCTCCCTCCTCTTCA [N51]	selected
GCAGGACACCGTAACGGGCTATGCTCTAAATTCTTCCTACTGACGCAATTTTGGACTGC [N21]	selected
TGACAGGCAGGACACCGTAACGGTGCGGTCATATCCGGCTTTGCTTTTCCTGCCTTCTCTCCTGCTACCTCCCTCCTCTTCA [N60]	selected
GCAGGACACCGTAACACTGCTTTATCCCCGTCGGCTTGTCTCTTCGACAGTGTGGCTGC [N29]	selected
TGACAGGCAGGACACCGTAACTACCTCTTCCATATCGGTGCAACATTTGGCTTAGCTCTTCCTGCTACCTCCCTCCTCTTCA [N52]	selected
TGACAGGCAGGACACCGTAACCGGGCGGAGCTCTTATTACATCAACTCGCTGTAATATGGCCTGCTACCTCCCTCCTCTTCA [N46]	selected
TGACAGGCAGGACACCGTAACGGGCGAATGCTCTCTTTGTTTTATATATAACAAAGTGTCTCTGCTACCTCCCTCCTCTTCA [N57]	selected
AGGCAGGACACCGTAACACCGGTGCGTCCCACGGCTCCAGCTCTTCCTGCCT [N12]	selected
TGACAGGCAGGACACCGTAACACGGTGCAAACTCTTGGCGAATGCTTTTCCTGACCCGCTACTGCTACCTCCCTCCTCTTCA [N43]	selected
TGACAGGCAGGACACCGTAACGGGTTTAACTCTCAAATTAGCTCTGCACTACATTTGTGCCCTGCTACCTCCCTCCTCTTCA [N50]	selected
GGCAGGACACCGTAACCATCGACGGTGCCGGTCTCGGGCATTTTGCTCTTCCTGCC [N32]	selected
CAGGCAGGACACCGTAACCGGGCATTTGCTCTCAATTTAGTCTCAAATTGTGGCCTGCCTG [N17]	selected

Sequence	selection result
TGACAGGCGGGACACCGTAACCCCAACACGTACGGGGCATTTATGGCATAGCTCTTCCTCCCTGCTACCTCCCTCCTCTTCA [N61]	selected
TGACAGGCAGGACACCGTAACAACAACTCGATACTGGTGCCATTTTGGGCGAACGCTTTTCCTGCTACCTCCCTCCTCTTCA [N40]	selected
GCAGGACACCGTAACGGGCGAACGCTCTTTATTTTGGAACCCACAAAATAATGTTCTGC [N19]	selected
TGACAGGCAGGACACCGTAACCGGGCTATTGCTCTCAAACTTACACTTTAACGTTTGGGTCCTGCTACCTCCCTCCTCTTCA [N55]	selected
TGACAGGCAGGACACCGTAACAACCAACCTACGGTGCAATATTTGGCGGATTAAGCTCTTCCTGCTACCTCCCTCCTCTTCA [N41]	selected
GCAGGACACCGTAACACTCTCAACCATGACGGTGCAATATTGGCGCTAGCTCTTCCTGC [N9]	selected
GCAGGACACCGTAACGTATTAACTAGTACCAGTGCATCTATGGCTATTGCTTTTCCTGC [N10]	selected
AGGCAGGACACCGTAACGGTGCATCTATGGCTTTGCTCTTCCTACCTGTTCTACGAGCTGCTACCTCCCT [N38]	selected
AGGCAGGACACCGTAACGGTGCGTGTACACGGCTCTGCTTTTCCTGCCT [N39]	selected
GCAGGACACCGTAACGTTCGTAACAACACGGCATCTATGGCTTTAGCTCTTGTACCTGC [N11]	selected
TGACAGGCAGGACACCGTAACATACGATTCTCTCGCACATTGTGGCTCCGCTTTTATGTTACTGCTACCTCCCTCCTCTTCA [N44]	selected
AGGCAGGACACCGTAACCGGTGCATCTATGGCTACTAGCTCTTCCTGCCT [N18]	selected
TGACAGGCAGGACACCGTAACTTCTGATAATCGGTGCATCTATGGCGTAGCTCTTCCTCACCTGCTACCTCCCTCCTCTTCA [N53]	selected
GCAGGACACCGTAACTCATCCCAAGCTCCGGTGCCATCTATGGGCTTCGCTTTTCCTGC [N24]	selected
GCAGGACACCGTAACACTGCTTTATCCCCGTCGGCTTGGCTCTTCGACAGTGTTGCTGC [N28]	selected
GCAGGACACCGTAACACTACCTTCTTTCGGTGCGATCCATTCGGCTTTGCTTTTCCTGC [N27]	selected
TGACAGGCAGGACACCGTAACACACGTTAACTTACGGCGCATTTTTTGGCTTCAGCTCTTCCTGCTACCTCCCTCCTCTTCA [N42]	selected
TGACAGGCAGGACACCGTAACGGGCTTAGCTCTAAATCAAATCCTCCTTATTGATTTTGTCCTGCTACCTCCCTCCTCTTCA [N48]	selected
GCAGGACACCGTAACGGGCGAACGCTCTAAATAAATGGCATCAATTTCTTTTGCCCTGC [N4]	selected

Sequence	selection result
GCAGGACACCGTAACAACAACTTCGTATCCGGTGCATTTATGGCGAATGCTTTTCCTGC [N26]	selected
GCAGGACACCGTAACACGGGCTGATGCTCTCTTTATTTTACCTAAATAAAGTGTCCTGC [N13]	selected
TGACAGGCAGGACACCGTAACGGGCTTATGCTCTTAAAAATCCTGAGCGACTTTTTATGTACTGCTACCTCCCTCCTCTTCA [N59]	selected
TGACAGGCAGGACACCGTAACGCGGGCGAAGCTCTTAATACCTCTCTATTATGTCCTGTTCCTGCTACCTCCCTCCCCTTCA [N56]	selected
GCAGGACACCGTAACGGGCAATCTTGCTCTTATTTTCACACTTGATAAATATGTCCTGC [N3]	selected
GGCAGGACACCGTAACCCCTAGTTCCTGGTGCATCTATGGCAAAGCTCTTCCTGCC [N34]	selected
TGACAGGCAGGACACCGTAACCATACTTCGGTGCATCCCATGGCGAATTCGCTCTTCCTTCCTGCTACCTCCCTCCTCTTCA [N45]	selected
CAGGCAGGACACCGTAACGGTGCAATTATTGGTGAACACTCTTCCTTAGCCTGCTACTCTG [N23]	selected
GACAGGCAGGACACCGTAACGGTGCATCCATGGCTTTTAGCTCTTCCTGAACTGTC [N37]	selected
AGCAGACGGGAGACTTTTAGAGTTGTAACTTGAGTCTGCT [N30]	selected
GCAGGACACCGTAACACGGGCTCTGCTTTTCCAATAATGACAAGTATTGGATGGCCTGC [N8]	selected
GCAGGACACCGTAACGGGCGGAGCTCTTCCATTTCAGATTTGTAAATGGATGTCACTGC [N20]	selected
GCAGGACACCGTAACGGGCTTATGCTCTTAAAAATCCTGAGCGACTTTTTATGTACTGC [N5]	selected
GGCAGGACACCGTAACCCCACTCGAGGTGCAATTTTGGCGTGAGCTCTTCCTGCC [N33]	selected
AGCAGACGGGAGACCTTTAGAGTTGTAACTTGAGTCTGCT [N15]	selected
TGACAGGCAGGACACCGTAACGGGTAACACTCTACTTATACCTTGCTATAAGTTGTCCGCACTGCTACCTCCCTCCTCTTCA [N49]	selected
GCAGGACACCGTAACCCTAACACGTACGGGGCATTTATGGCATAGCTCTTCCTCCCTGC [N1]	selected
TGACAGGCAGGACACCGTAACGGGCTCTGCTCTAAATTTCGCCCTTGCACGAAATTTTGTCCTGCTACCTCCCCCCTCTTCA [N58]	selected
